The values below come from publication PMC368434 (BMC Gastroenterology, 2004).

The structures appear in SMILES notation.

This assay concerns rabbit gastric parietal cells. Kind of assay: Acid accumulation assay. Type of assay: cell-based. The conditions noted are these: up to concentrations of 10^-4 M (data not shown).

Take `COc1ccc2cc([C@H](C)C(=O)O)ccc2c1` [naproxen]: the “Effect on acid accumulation by isolated rabbit parietal cells” value was “no effect”.
